Data as given in PubChem BioAssay AID1224830 (NIAID, 2016).
The whole screen tested about 18,000 reagents; shown is a part drawn at random. About 2,900 of them (16%) count as active. 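Calls are made per well; low scores hint the gene aids the LPS response, high scores that it dampens it.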 Repeated entries: four replicate wells of each siRNA pool.

Test: 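Regulators of TLR4 signalling towards TNF-alpha in macrophage-like cells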 (primary screen)
Cell system: human THP-1 monocytic leukaemia cells, TNF dual-luciferase reporter clone, PMA-differentiated to macrophage-like cells
Knock-down reagent: siRNA pool against human genes, 50 nM
Timing: LPS for 4 h, given about 3 days after siRNA transfection
Conditions: bacterial LPS (TLR4 ligand), 10 ng/ml
Detection: 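TNF firefly reporter luminescence divided by renilla, normalised to the plate median, then turned into a robust z-score for each replicate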
Reading the numbers: TNF reporter robust z-score: higher = stronger TNF reporter response to LPS
Hit rule: 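a well is active when its z-score exceeds 2.8 or falls below -1.5; control wells carry no call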

| target | TNF reporter robust z-score | outcome |
| --- | --- | --- |
| PPP2R3B (protein phosphatase 2 regulatory subunit B''beta) | -0.51 | inactive |
| PPP2R3B (protein phosphatase 2 regulatory subunit B''beta) | 1.27 | inactive |
| PPP2R3B (protein phosphatase 2 regulatory subunit B''beta) | 0.11 | inactive |
| PPP2R3B (protein phosphatase 2 regulatory subunit B''beta) | 2.1 | inactive |
| USF2 (upstream transcription factor 2, c-fos interacting) | -0.23 | inactive |
| USF2 (upstream transcription factor 2, c-fos interacting) | 0.41 | inactive |
| USF2 (upstream transcription factor 2, c-fos interacting) | 0.34 | inactive |
| USF2 (upstream transcription factor 2, c-fos interacting) | -0.1 | inactive |
| GHR (growth hormone receptor) | -0.88 | inactive |
| GHR (growth hormone receptor) | 0.22 | inactive |
| GHR (growth hormone receptor) | 0.86 | inactive |
| GHR (growth hormone receptor) | 2.48 | inactive |
| FOXL1 (forkhead box L1) | -0.63 | inactive |
| FOXL1 (forkhead box L1) | 0.03 | inactive |
| FOXL1 (forkhead box L1) | -0.79 | inactive |
| FOXL1 (forkhead box L1) | -0.2 | inactive |
| TXK (TXK tyrosine kinase) | 1.23 | inactive |
| TXK (TXK tyrosine kinase) | 1.18 | inactive |
| TXK (TXK tyrosine kinase) | 0.78 | inactive |
| TXK (TXK tyrosine kinase) | 1.29 | inactive |
| CDK16 (cyclin dependent kinase 16) | 1.62 | inactive |
| CDK16 (cyclin dependent kinase 16) | 0.6 | inactive |
| CDK16 (cyclin dependent kinase 16) | -0.07 | inactive |
| CDK16 (cyclin dependent kinase 16) | 0.17 | inactive |
| NFASC (neurofascin) | 0.26 | inactive |
| NFASC (neurofascin) | 0.51 | inactive |
| NFASC (neurofascin) | -0.53 | inactive |
| NFASC (neurofascin) | 0.74 | inactive |
| HACL1 (2-hydroxyacyl-CoA lyase 1) | 0.43 | inactive |
| HACL1 (2-hydroxyacyl-CoA lyase 1) | -0.76 | inactive |
| HACL1 (2-hydroxyacyl-CoA lyase 1) | 0.21 | inactive |
| HACL1 (2-hydroxyacyl-CoA lyase 1) | 0.75 | inactive |
| TCF7L2 (transcription factor 7 like 2) | -0.34 | inactive |
| TCF7L2 (transcription factor 7 like 2) | 0.65 | inactive |
| TCF7L2 (transcription factor 7 like 2) | -0.77 | inactive |
| TCF7L2 (transcription factor 7 like 2) | -0.31 | inactive |
| ASPA (aspartoacylase) | 0.71 | inactive |
| ASPA (aspartoacylase) | 2.08 | inactive |
| ASPA (aspartoacylase) | 1 | inactive |
| ASPA (aspartoacylase) | -0.52 | inactive |
| PATZ1 (POZ/BTB and AT hook containing zinc finger 1) | -0.21 | inactive |
| PATZ1 (POZ/BTB and AT hook containing zinc finger 1) | 1.04 | inactive |
| PATZ1 (POZ/BTB and AT hook containing zinc finger 1) | -0.7 | inactive |
| PATZ1 (POZ/BTB and AT hook containing zinc finger 1) | -1.27 | inactive |
| TMEM41A (transmembrane protein 41A) | -1.27 | inactive |
| TMEM41A (transmembrane protein 41A) | 0.25 | inactive |
| TMEM41A (transmembrane protein 41A) | -0.13 | inactive |
| TMEM41A (transmembrane protein 41A) | 0.09 | inactive |

8 entries from above, arranged by “TNF reporter robust z-score”, lowest first:
| target | TNF reporter robust z-score | outcome |
| --- | --- | --- |
| TCF7L2 (transcription factor 7 like 2) | -0.77 | inactive |
| ASPA (aspartoacylase) | -0.52 | inactive |
| TCF7L2 (transcription factor 7 like 2) | -0.34 | inactive |
| TCF7L2 (transcription factor 7 like 2) | -0.31 | inactive |
| TCF7L2 (transcription factor 7 like 2) | 0.65 | inactive |
| ASPA (aspartoacylase) | 0.71 | inactive |
| ASPA (aspartoacylase) | 1 | inactive |
| ASPA (aspartoacylase) | 2.08 | inactive |
